Data published in US20060008800A1 (published 2006).
Numbering of substitutions follows the chain as printed. Names and notes keep the numbering of the source. Each block holds one binder with its values, some of them ahead of it.

How the values were obtained:
[1] = biological target: T1, Calmodulin from rat brain synaptosome extract (rat, UniProt P0DP29 2-149); test: GST cosedimentation with rat brain synaptosome extract, Calmodulin immunoblot
[2] = biological target: T1, Calmodulin from rat brain synaptosome …; test: GST cosedimentation from rat brain synaptosome extract, Calmodulin immunoblot

binding result [1]: binds
B1: GST-ubMunc13-2 (372-494) (other)
chain: PEEKASSPFTQARAHWFRAVTKVRLQLQEISDDGDPSLPQWLPEGPAGGLYGIDSMPDLRRKKPLPLVSDLAMSLVQSRKAGITSAMATRTSLKDEDLKSHVYKKTLQALIYPISCTTPHNFE
notes: Expressed in bacteria, purified, adsorbed onto glutathione beads; also called GSTubMunc13-2 (aa 372-494); wt GST-ubMunc13-2 (372-494); not shown: GST tag (glutathione S-transferase)

binding result [2]: no binding
B2: GST-ubMunc13-2 (372-494) with W387R point mutation (other, not shown: a dimerising Fc or GST; large carriers; small tags and cut ends)
chain: B1 chain with W16R
notes: also called GST-fusion proteins that contain the tryptophane mutations
